Assay results taken from the RepoRT retention time repository (doi:10.1038/s41586-021-03707-9).

Assay: Waters ACQUITY UPLC BEH C18, 100 × 2.1 mm, 1.7 µm, 40 °C, 0.28 mL/min, estimated dead time 0.63 min; A: water + 6.5 mM ammonium hydroxide; B: methanol + 6.5 mM ammonium hydroxide; gradient (min/%B) 0/0.5 4/70 4.5/98 5.4/98
Details: stereoisomer not certain

O=C(O)C(=O)Cc1ccc(O)cc1
LC retention time: 1.31 min
